The results in this text go back to article doi:10.1101/2024.09.10.612331.

By UniProt entry, the sequences of proteins in these tests, tags left out. Residues count along the entry.
UniProt O35137, 197-262: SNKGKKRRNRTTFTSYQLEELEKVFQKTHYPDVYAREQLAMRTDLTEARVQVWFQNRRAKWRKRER
UniProt O35137, 158-291 Q213E: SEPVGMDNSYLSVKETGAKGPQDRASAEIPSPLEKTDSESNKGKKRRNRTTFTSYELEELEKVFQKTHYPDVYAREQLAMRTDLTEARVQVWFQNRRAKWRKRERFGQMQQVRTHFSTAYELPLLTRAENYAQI
UniProt O35137, 158-291 K199E: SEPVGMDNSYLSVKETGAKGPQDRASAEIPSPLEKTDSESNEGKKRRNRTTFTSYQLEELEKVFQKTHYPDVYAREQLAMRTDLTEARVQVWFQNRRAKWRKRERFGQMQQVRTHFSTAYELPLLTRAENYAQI
UniProt O35137, 158-291 R203A: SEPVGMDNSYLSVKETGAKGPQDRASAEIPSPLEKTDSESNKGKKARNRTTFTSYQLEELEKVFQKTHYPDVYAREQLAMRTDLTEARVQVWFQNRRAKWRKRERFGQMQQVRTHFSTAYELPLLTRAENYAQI
UniProt O35137, 158-291, stated change not applied: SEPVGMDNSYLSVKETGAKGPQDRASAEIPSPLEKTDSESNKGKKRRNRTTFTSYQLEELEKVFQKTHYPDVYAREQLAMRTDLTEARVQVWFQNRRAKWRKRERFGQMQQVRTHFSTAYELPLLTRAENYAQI
UniProt O35137, 158-291 V229R: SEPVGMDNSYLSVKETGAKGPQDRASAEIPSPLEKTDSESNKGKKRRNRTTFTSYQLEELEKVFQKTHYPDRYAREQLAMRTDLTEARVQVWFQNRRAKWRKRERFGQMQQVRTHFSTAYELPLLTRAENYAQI
UniProt O35137, 158-291 R206Q: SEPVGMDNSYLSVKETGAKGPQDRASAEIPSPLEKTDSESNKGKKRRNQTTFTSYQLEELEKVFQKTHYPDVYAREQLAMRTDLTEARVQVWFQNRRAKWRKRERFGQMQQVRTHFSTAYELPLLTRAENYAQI
UniProt O35137, 158-291 R204G: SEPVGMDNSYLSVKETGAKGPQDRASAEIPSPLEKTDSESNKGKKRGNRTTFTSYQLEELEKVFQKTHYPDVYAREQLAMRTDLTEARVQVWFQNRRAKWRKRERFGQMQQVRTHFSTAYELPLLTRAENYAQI
UniProt O35137, 158-291 R204A: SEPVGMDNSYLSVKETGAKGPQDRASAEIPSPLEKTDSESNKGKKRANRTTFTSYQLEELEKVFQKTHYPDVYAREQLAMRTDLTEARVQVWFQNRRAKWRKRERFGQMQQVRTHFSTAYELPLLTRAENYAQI
UniProt O35137, 158-291 R260P: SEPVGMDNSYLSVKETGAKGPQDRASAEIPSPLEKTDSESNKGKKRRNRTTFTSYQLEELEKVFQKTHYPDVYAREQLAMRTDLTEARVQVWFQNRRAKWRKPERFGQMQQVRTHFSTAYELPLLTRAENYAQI

Construct, isoform or probe ends are uncertain for at least one entry. For some assays here: A negative result means that nothing was seen under these conditions. For some assays here: At least one verdict rests on a figure or table, not on a statement of the authors. For some assays here: Whether high values mean tight binding is not given here for every scale.

Holding throughout (assay): EMSA
(A gel shift assay detects complexes by their altered migration in electrophoresis.)

Data set [1] has as its target ALX4 HD (UniProt O35137). The note with it: residues 197-262.
The target in data set [2] is ALX4 Q225E Q213E (UniProt O35137). The note with it: reduced cooperativity.
Data set [3] concerns the target ALX4 K211E K199E (UniProt O35137). To be noted: no substantial reduction in cooperativity.
The target in data set [4] is ALX4 R215A R203A (UniProt O35137). The note with it: reduced cooperativity.
The target of data set [5] is ALX4 WT (ITC, mutant-series EMSA) (UniProt O35137). To be noted: cooperative reference for variants.
The target of data set [6] is ALX4 V241R V229R (UniProt O35137). To be noted: cooperativity abolished, second-site binding hindered.
The target of data set [7] is ALX4 R218Q R206Q (UniProt O35137).
Data set [8] addresses ALX4 R216G R204G (UniProt O35137). The note with it: reduced cooperativity.
Data set [9] concerns the target ALX4 R216A R204A (UniProt O35137). The note with it: reduced cooperativity.
Data set [10] deals with ALX4 R272P R260P (UniProt O35137). The note with it: no substantial reduction in cooperativity.

Turning to “TGTGTCTTAATTAGGATTAACGCACTTGATAGTGCGGGCGTGGCT (double strand) [P4 site EMSA probe]”, the binding signal (Tau (cooperativity factor)) in data set [1] (no preferential dimer binding) is 1.5.

With “TGTGTCTTAATTAGATTAACGCACTTGATAGTGCGGGCGTGGCT (double strand) [P3 site EMSA probe]”, the binding signal (fold reduction in Tau vs WT) came out at 2 in [2], 5 in data set [4], 10 in data set [8] and 10 in data set [9]. The binding result in [3] is “binds”; in [5], “binds”; in data set [7], “no binding”; in [10] it was “binds”. Further, the binding signal (Tau (cooperativity factor)) was determined as 0.327 in data set [6] and 110 in [1].
